Reference: the supplement of paper PMC10849652
The list shows a part of the results.

The chains behind the UniProt entries cited, without tags or fusion partners. Where a name states a change or a piece, a line headed by the entry shows the natural chain unless it says otherwise.
UniProt Q86VM9: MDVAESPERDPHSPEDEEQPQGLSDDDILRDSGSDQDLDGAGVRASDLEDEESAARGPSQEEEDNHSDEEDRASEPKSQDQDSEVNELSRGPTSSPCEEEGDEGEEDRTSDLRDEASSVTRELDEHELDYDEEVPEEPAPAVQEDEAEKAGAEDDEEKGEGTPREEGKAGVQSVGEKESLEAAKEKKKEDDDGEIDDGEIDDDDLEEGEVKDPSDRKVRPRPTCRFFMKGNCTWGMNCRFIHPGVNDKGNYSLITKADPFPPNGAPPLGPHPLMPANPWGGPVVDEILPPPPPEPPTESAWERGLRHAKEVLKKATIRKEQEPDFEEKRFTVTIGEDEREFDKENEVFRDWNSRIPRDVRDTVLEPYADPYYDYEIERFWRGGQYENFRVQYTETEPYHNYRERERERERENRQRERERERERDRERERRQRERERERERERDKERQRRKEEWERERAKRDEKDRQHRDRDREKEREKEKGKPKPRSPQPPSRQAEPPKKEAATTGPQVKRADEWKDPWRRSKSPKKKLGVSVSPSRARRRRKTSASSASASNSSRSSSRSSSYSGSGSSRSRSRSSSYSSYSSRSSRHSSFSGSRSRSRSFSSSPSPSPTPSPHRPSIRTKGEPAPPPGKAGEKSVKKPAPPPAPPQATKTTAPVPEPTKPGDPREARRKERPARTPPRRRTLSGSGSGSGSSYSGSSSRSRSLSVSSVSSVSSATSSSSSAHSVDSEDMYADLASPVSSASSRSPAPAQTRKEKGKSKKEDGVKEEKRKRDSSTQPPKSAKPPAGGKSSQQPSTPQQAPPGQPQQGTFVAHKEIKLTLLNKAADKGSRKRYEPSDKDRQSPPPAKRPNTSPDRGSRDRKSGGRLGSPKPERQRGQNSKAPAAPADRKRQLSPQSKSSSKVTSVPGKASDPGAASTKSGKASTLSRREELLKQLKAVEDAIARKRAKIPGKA
UniProt O43298: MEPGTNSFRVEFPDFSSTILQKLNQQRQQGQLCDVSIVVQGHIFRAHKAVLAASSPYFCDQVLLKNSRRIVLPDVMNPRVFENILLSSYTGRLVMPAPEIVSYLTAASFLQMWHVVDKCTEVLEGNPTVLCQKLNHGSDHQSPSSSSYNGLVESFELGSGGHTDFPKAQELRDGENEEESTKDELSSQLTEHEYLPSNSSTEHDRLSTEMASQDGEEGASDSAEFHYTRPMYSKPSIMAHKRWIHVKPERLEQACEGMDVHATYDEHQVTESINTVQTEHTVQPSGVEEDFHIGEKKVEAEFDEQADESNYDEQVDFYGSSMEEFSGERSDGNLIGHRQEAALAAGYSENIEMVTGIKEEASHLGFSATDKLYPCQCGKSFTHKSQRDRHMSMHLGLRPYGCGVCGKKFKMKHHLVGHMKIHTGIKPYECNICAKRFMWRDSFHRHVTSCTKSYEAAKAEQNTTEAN
UniProt Q8NF64: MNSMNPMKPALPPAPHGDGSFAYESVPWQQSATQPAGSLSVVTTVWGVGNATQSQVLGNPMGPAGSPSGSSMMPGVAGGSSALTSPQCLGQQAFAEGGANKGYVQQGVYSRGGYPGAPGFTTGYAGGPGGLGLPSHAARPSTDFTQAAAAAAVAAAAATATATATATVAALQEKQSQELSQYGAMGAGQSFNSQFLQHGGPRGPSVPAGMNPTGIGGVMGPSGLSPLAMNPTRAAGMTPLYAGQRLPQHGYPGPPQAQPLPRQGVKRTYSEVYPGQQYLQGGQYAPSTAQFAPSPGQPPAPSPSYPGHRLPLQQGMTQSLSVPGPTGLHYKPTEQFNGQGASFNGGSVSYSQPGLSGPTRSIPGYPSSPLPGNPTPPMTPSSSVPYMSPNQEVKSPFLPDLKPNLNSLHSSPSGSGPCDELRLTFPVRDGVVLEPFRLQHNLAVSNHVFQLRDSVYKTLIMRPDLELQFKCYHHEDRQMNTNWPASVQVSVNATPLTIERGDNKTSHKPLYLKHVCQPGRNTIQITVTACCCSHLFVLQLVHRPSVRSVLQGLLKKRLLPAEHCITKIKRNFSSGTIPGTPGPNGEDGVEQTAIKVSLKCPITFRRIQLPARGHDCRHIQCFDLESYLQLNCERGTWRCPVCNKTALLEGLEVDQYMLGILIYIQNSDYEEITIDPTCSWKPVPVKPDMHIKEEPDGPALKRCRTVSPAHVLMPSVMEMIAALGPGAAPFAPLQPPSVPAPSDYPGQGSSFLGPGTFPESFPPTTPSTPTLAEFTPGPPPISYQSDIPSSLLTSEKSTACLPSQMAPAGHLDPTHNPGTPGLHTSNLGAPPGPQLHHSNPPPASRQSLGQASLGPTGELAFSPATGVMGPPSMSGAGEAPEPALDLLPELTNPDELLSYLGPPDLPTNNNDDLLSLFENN
UniProt Q7Z7L7: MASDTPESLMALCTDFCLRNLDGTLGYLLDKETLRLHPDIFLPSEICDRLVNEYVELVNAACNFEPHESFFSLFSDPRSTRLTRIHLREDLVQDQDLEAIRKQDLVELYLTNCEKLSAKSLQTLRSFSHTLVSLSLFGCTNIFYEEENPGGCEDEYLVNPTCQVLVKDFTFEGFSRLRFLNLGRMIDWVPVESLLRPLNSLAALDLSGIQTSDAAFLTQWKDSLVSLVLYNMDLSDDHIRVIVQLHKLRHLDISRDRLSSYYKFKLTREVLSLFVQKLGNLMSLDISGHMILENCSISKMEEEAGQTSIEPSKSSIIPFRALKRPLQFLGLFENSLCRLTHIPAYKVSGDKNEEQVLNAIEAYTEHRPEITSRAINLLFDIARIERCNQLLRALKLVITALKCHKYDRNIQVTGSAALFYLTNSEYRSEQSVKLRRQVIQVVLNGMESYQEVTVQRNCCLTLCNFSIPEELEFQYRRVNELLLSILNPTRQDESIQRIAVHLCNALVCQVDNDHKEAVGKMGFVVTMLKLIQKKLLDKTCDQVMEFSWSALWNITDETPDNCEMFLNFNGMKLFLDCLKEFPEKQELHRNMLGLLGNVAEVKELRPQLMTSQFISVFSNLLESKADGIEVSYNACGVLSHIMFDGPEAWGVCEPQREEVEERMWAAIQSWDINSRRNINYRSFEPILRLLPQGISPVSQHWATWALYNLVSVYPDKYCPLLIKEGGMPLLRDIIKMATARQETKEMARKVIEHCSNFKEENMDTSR
UniProt P62258: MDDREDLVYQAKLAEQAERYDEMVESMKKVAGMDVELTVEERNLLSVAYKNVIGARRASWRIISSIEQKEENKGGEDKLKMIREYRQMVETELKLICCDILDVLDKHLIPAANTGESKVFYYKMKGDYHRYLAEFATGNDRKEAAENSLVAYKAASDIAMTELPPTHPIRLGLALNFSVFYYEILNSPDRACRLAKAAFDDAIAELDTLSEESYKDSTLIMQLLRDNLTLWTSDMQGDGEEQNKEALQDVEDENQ
UniProt Q6PJT7: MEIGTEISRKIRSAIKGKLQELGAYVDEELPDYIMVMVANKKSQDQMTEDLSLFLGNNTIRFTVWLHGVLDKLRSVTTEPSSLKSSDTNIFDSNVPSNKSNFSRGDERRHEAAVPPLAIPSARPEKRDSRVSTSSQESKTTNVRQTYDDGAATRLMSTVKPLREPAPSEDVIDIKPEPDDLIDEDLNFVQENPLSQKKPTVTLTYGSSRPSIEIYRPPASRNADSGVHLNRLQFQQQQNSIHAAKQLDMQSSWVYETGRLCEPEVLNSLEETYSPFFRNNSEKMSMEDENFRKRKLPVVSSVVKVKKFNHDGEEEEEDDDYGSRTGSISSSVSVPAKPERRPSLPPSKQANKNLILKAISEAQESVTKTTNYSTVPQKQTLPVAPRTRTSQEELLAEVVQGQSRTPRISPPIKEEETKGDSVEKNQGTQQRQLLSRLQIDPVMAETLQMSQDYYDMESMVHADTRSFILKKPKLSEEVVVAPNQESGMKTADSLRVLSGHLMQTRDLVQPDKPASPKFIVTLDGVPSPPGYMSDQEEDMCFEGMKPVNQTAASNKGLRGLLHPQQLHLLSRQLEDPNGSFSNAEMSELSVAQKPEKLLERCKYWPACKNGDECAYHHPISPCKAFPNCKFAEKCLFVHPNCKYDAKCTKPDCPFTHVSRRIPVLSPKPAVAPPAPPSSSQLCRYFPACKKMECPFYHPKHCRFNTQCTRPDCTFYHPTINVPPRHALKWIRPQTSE
UniProt Q16600: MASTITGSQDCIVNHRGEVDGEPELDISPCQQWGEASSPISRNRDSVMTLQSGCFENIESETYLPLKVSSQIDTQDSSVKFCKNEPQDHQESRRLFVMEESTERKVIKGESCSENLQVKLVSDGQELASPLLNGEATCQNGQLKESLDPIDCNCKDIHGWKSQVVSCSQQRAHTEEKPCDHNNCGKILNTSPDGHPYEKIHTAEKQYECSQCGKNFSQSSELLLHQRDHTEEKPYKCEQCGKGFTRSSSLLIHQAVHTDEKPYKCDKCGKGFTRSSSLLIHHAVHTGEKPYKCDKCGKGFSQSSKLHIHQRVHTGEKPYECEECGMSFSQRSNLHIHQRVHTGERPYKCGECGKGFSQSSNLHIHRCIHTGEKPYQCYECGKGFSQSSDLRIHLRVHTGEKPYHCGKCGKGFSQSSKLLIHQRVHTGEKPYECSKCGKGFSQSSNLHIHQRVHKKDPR
UniProt P17028: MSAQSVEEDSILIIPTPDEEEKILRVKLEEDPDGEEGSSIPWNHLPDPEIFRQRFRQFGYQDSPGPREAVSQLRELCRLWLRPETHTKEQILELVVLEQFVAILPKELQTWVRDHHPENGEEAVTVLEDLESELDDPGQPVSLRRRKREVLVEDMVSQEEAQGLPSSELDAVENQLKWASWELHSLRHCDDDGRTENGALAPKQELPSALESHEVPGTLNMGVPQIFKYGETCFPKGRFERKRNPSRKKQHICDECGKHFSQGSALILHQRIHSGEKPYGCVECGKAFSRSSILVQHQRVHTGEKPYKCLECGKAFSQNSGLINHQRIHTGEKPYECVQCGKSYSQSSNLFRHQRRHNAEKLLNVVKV
UniProt Q6FIF0: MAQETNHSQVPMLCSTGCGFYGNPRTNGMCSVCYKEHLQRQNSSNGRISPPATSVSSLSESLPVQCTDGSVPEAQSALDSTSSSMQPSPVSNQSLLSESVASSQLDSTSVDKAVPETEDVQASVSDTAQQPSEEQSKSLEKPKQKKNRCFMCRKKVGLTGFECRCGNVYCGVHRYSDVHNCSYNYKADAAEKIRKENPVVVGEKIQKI
UniProt Q9NUD5: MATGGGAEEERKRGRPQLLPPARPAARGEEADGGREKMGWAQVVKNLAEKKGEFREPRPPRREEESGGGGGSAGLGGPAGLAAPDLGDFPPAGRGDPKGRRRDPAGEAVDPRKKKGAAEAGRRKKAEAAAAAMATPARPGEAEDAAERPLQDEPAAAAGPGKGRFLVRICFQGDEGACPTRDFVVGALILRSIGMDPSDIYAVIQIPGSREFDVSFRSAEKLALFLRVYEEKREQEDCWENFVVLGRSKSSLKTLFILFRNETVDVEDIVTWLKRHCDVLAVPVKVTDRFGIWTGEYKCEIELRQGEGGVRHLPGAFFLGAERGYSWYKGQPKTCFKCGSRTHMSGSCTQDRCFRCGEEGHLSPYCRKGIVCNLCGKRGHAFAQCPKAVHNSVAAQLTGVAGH
UniProt O95619, whole entry, looked up: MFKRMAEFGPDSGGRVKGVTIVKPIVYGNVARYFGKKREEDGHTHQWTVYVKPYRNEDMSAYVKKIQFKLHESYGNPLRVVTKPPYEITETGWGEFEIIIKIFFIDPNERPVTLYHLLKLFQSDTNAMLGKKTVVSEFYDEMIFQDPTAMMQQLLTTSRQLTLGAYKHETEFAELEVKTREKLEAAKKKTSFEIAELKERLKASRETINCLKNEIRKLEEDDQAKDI
UniProt Q86WB0: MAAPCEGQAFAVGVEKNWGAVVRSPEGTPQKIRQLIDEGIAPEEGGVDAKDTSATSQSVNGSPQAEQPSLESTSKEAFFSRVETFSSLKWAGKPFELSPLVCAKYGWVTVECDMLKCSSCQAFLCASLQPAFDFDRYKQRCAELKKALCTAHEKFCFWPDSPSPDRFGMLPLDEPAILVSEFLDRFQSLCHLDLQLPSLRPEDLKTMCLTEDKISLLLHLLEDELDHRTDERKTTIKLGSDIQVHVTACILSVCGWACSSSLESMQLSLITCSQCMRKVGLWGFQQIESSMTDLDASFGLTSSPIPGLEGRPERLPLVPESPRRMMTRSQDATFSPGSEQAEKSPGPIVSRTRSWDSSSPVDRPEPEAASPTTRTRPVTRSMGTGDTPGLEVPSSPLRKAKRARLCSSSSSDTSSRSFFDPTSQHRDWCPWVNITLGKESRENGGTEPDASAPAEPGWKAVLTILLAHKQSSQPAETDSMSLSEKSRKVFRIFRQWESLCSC
UniProt Q9NYG2: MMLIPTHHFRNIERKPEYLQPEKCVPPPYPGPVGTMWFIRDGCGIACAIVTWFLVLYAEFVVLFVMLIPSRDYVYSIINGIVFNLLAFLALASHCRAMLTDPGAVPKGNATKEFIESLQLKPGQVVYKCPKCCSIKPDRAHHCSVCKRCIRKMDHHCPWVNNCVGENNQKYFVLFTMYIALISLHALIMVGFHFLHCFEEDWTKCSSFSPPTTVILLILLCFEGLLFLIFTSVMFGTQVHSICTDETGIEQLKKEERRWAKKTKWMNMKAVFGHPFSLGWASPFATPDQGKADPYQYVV

What follows are targets tested with C1=CC2=C(C=CC(=C2)/C=C\3/C(=O)NC(=NCC4=CC=CS4)S3)N=C1 (assay: log2 fold change, soluble protein after heating vs DMSO (PISA); higher = thermal stabilisation; K562 cells, 10 uM, 30 min; active = over 0.2 and 3.5 SD of the protein, either way, in both replicates (recomputed)).
Outline: (§1)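 K562 cells at 2×10^6 cells/mL were exposed to 10 μM compound for 30 min, then aliquots were heated for 3 min across 48°C-58°C, pooled, and extracted in PBS containing 0.5% NP-40 at 4°C. The supernatant after 21,000xg for 90 min was taken as soluble protein and measured by TMTpro 16plex LC-MS/MS with channel sums equalised. Thermal stability is reported relative to control samples, with values from duplicates. Fold changes are given on a log2 scale.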

log2 fold change, inactive:
ZDHHC14 (UniProt Q8IZN3) 0.026
ZC3H18 (UniProt Q86VM9) 0.003
ZC3H8 (UniProt Q8N5P1) -0.062
YIPF4 (UniProt Q9BSR8) -0.006
YDJC (UniProt A8MPS7) 0.025
ZMPSTE24 (UniProt O75844) -0.009
ZFYVE27 isoform 2 (UniProt Q5T4F4) 0.003
ZBTB43 (UniProt O43298) -0.081
ZMIZ2 (UniProt Q8NF64) 0.142
ZDHHC18 (UniProt Q9NUE0) 0.048
ZER1 (UniProt Q7Z7L7) -0.016
YY1 (UniProt P25490) -0.014
YWHAE (UniProt P62258) -0.031
YES1 (UniProt P07947) 0.094
ZBTB8OS (UniProt Q8IWT0) 0.09
YJU2 (UniProt Q9BW85) 0.007
YLPM1 (UniProt P49750) 0.057
YBX3 (UniProt P16989) -0.058
ZFYVE19 (UniProt Q96K21) 0.056
YARS2 (UniProt Q9Y2Z4) 0.048
XPO5 (UniProt Q9HAV4) 0.011
ZDHHC17 (UniProt Q8IUH5) 0.064
ZC3H14 (UniProt Q6PJT7) -0.194
YKT6 (UniProt O15498) 0.013
ZDHHC5 (UniProt Q9C0B5) 0.091
ZNF239 (UniProt Q16600) 0.117
ZC3H15 (UniProt Q8WU90) -0.058
YAE1 (UniProt Q9NRH1) -0.018
ZNF24 (UniProt P17028) -0.064
ZFAND6 (UniProt Q6FIF0) 0.077
ZC2HC1A (UniProt Q96GY0) 0.014
YWHAZ (UniProt P63104) -0.154
ZCCHC3 (UniProt Q9NUD5) -0.046
XPO1 (UniProt O14980) 0.061
YEATS4 (UniProt O95619) -0.031
ZC3HC1 (UniProt Q86WB0) 0.077
XXYLT1 (UniProt Q8NBI6) 0.022
ZDHHC3 isoform 2 (UniProt Q9NYG2) 0.076
ZBTB21 (UniProt Q9ULJ3) -0.024

Each target was assayed with C1=CC2=NC=CN=C2C=C1/C=C/3\C(=O)NC(=O)S3 in the same assay as above.
Outline: as §1

log2 fold change, inactive:
ZDHHC14 (UniProt Q8IZN3) -0.005
ZC3H18 (UniProt Q86VM9) 0.035
ZC3H8 (UniProt Q8N5P1) 0.044
YIPF4 (UniProt Q9BSR8) 0.04
YDJC (UniProt A8MPS7) 0.05
ZMPSTE24 (UniProt O75844) 0.039
ZFYVE27 isoform 2 (UniProt Q5T4F4) 0.022
ZBTB43 (UniProt O43298) -0.054
ZMIZ2 (UniProt Q8NF64) 0.039
ZDHHC18 (UniProt Q9NUE0) 0.027
ZER1 (UniProt Q7Z7L7) 0.031
YY1 (UniProt P25490) 0.004
YWHAE (UniProt P62258) 0.027
YES1 (UniProt P07947) -0.09
ZBTB8OS (UniProt Q8IWT0) 0.033
YJU2 (UniProt Q9BW85) 0.033
YLPM1 (UniProt P49750) 0.046
YBX3 (UniProt P16989) -0.013
ZFYVE19 (UniProt Q96K21) -0.01
YARS2 (UniProt Q9Y2Z4) 0
XPO5 (UniProt Q9HAV4) 0.016
ZDHHC17 (UniProt Q8IUH5) 0.11
ZC3H14 (UniProt Q6PJT7) 0.036
YKT6 (UniProt O15498) 0.031
ZDHHC5 (UniProt Q9C0B5) 0.007
ZNF239 (UniProt Q16600) 0.065
ZC3H15 (UniProt Q8WU90) -0.02
YAE1 (UniProt Q9NRH1) -0.037
ZNF24 (UniProt P17028) -0.022
ZFAND6 (UniProt Q6FIF0) 0.007
ZC2HC1A (UniProt Q96GY0) 0.023
YWHAZ (UniProt P63104) -0.012
ZCCHC3 (UniProt Q9NUD5) 0.067
XPO1 (UniProt O14980) 0.041
YEATS4 (UniProt O95619) 0.07
ZC3HC1 (UniProt Q86WB0) 0.021
XXYLT1 (UniProt Q8NBI6) 0.049
ZDHHC3 isoform 2 (UniProt Q9NYG2) 0.011
ZBTB21 (UniProt Q9ULJ3) 0.156
